Results taken from patent US20150037311A1.
Results are given in words; binding and its absence hold for the method and conditions named. In cells and extracts the contact can be indirect. Some binding calls cover weakened binding; strength is not graded here. Where a sequence is shown, tags or fusion partners need not be part of it.

By UniProt entry, the sequences of proteins in these tests, tags left out. Residues count along the entry.
UniProt Q91ZX7, residues 20-4545: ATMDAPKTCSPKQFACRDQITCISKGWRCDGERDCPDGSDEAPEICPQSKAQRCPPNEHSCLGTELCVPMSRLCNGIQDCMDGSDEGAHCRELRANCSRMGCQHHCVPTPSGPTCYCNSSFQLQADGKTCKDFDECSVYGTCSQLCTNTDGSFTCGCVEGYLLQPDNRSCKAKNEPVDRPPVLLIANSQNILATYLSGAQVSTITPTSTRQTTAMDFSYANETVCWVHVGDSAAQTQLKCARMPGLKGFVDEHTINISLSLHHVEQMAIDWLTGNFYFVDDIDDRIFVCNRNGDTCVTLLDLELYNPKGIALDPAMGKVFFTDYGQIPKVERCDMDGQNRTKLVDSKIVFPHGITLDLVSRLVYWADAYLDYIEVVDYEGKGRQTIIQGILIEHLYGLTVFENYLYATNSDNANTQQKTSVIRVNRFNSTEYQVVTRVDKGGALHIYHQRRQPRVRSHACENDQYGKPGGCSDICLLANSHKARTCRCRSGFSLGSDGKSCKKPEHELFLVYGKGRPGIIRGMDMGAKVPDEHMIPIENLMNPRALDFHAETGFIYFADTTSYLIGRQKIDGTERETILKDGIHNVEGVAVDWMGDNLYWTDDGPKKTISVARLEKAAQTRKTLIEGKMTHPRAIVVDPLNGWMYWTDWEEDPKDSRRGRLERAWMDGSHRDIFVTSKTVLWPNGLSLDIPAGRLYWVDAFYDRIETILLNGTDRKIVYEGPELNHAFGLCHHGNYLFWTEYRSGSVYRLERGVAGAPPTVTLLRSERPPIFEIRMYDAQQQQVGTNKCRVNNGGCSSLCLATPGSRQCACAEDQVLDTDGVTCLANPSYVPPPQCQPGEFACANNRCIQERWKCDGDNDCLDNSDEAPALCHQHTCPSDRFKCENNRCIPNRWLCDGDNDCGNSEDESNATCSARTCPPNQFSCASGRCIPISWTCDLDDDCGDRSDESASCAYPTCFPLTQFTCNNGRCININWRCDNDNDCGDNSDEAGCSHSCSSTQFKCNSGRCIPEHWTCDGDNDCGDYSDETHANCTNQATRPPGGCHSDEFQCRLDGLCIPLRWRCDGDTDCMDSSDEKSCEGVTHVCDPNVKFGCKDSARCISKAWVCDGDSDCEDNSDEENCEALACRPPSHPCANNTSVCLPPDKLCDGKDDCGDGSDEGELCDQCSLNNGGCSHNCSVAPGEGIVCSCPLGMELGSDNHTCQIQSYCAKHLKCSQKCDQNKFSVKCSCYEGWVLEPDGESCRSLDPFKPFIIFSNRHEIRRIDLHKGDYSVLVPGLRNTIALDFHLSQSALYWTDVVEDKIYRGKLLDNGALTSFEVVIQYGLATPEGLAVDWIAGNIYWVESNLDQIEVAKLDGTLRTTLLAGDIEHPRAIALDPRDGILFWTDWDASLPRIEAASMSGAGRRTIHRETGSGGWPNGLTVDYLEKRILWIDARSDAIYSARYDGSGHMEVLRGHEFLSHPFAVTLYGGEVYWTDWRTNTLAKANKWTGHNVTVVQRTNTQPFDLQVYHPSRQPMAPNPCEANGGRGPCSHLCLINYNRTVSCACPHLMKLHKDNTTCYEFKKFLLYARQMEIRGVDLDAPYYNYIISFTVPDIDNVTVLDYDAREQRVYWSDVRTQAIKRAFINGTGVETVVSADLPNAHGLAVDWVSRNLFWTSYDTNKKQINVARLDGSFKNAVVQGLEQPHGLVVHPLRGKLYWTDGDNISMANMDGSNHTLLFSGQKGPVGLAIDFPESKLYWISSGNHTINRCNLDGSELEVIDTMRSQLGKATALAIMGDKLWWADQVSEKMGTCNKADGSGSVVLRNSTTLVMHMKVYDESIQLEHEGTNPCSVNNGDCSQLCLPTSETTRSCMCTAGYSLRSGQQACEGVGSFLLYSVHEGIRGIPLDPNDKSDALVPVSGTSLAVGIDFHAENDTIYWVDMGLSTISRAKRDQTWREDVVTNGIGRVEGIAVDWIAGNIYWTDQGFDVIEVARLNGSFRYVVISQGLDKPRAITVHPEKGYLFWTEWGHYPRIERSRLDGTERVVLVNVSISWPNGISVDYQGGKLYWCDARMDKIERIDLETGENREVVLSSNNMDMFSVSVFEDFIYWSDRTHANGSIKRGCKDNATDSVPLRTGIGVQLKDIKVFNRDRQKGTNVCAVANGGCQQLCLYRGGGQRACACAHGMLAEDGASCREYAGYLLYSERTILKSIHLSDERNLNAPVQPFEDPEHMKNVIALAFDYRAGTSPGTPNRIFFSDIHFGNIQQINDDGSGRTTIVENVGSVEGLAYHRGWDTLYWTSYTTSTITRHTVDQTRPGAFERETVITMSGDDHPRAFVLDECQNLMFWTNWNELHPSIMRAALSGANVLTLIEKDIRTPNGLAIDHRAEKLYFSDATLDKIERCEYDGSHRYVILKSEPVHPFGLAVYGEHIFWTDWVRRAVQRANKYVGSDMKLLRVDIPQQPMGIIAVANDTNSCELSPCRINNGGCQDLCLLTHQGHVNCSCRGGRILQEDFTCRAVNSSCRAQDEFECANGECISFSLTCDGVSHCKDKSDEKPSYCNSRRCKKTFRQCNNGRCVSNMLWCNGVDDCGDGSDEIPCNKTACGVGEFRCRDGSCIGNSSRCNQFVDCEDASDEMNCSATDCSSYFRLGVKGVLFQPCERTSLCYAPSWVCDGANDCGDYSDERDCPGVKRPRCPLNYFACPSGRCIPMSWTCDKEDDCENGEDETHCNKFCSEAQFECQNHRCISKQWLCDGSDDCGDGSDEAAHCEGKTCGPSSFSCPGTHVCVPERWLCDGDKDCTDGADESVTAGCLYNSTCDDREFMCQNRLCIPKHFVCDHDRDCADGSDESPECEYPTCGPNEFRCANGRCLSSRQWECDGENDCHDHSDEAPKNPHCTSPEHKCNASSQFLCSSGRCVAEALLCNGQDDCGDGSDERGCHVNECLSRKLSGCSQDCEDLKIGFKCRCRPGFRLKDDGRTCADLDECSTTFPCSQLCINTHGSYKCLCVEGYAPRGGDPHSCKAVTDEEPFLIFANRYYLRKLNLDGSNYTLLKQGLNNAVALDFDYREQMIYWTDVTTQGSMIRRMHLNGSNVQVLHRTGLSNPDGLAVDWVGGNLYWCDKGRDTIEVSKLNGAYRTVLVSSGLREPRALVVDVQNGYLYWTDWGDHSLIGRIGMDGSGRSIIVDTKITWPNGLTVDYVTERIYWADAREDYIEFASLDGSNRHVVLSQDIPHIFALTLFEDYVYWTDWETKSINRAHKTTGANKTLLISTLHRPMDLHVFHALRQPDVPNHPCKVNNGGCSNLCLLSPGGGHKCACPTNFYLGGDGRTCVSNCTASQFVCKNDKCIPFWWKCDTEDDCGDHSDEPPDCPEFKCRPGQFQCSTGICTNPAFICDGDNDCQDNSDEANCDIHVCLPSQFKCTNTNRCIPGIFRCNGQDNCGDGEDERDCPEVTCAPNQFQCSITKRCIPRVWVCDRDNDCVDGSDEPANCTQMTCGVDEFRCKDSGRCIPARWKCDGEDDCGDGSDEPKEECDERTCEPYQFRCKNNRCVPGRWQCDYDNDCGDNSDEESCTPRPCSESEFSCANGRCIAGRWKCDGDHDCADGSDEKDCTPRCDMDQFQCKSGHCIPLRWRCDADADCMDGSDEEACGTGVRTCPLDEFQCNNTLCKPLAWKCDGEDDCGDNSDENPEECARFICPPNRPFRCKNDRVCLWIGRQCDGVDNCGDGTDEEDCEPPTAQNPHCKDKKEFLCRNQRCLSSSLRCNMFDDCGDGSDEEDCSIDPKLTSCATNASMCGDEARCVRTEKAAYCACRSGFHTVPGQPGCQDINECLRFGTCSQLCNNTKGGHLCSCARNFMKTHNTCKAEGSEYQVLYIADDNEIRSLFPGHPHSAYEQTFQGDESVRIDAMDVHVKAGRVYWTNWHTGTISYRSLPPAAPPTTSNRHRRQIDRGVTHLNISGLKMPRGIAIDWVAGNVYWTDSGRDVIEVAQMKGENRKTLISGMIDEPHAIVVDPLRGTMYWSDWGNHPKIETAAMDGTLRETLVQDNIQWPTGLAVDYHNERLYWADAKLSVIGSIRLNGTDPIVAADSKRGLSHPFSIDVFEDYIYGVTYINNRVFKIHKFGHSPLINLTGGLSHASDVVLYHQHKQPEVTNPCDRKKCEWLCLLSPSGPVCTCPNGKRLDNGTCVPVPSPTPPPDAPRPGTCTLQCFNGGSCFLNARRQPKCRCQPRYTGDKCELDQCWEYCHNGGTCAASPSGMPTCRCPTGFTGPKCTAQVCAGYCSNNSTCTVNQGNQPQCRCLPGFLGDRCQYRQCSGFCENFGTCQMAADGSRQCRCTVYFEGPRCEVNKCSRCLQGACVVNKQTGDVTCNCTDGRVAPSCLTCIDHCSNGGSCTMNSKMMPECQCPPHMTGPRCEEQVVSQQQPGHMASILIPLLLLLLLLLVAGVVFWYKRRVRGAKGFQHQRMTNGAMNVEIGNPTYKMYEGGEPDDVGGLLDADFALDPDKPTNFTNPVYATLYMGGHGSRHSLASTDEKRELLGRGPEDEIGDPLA

Assays:
LRP1 [1] = target: LRP1 (UniProt Q91ZX7); test: co-immunoprecipitation: LRP1-expressing RAW 264.7 cells incubated with enzyme, IP with anti-IDUA antibody, western blot for LRP1
LRP1 [2] = target: LRP1 (UniProt Q91ZX7); test: co-immunoprecipitation, western blots (FIG. 39B)

B1: An2-IDUA fusion protein (Angiopep-2 fused to the N-terminus of human alpha-L-iduronidase) (enzyme)
chain: TFFYGGSRGKRNNFKTEEYAPHLVHVDAARALWPLRRFWRSTGFCPPLPHSQADQYVLSWDQQLNLAYVGAVPHRGIKQVRTHWLLELVTTRGSTGRGLSYNFTHLDGYLDLLRENQLLPGFELMGSASGHFTDFEDKQQVFEWKDLVSSLARRYIGRYGLAHVSKWNFETWNEPDHHDFDNVSMTMQGFLNYYDACSEGLRAASPALRLGGPGDSFHTPPRSPLSWGLLRHCHDGTNFFTGEAGVRLDYISLHRKGARSSISILEQEKVVAQQIRQLFPKFADTPIYNDEADPLVGWSLPQPWRADVTYAAMVVKVIAQHQNLLLANTTSAFPYALLSNDNAFLSYHPHPFAQRTLTARFQVNNTRPPHVQLLRKPVLTAMGLLALLDEEQLWAEVSQAGTVLDSNHTVGVLASAHRPQGPADAWRAAVLIYASDDTRAHPNRSVAVTLRLRGVPPGPGLVYVTRYLDNGLCSPDGEWRRLGRPVFPTAEQFRRMRAAEDPVAAAPRPLPAGGRLTLRPALRLPSLLLVHVCARPEKPPGQVTRLRALPLTQGQLVLVWSDEHVGSKCLWTYEIQFSQDGKAYTPVSRKPSTFNLFVFSPDTGAVSGSYRVRALDYWARPGPFSDPVPYLEVPVPRGPPSPGNP
- binding (LRP1 [1]): binds
- binding (LRP1 [2]): binds
